From article PMC11633308 come the findings set out here.

Amino acid sequences for entries named in this document (tags omitted).
UniProt Q96GD4: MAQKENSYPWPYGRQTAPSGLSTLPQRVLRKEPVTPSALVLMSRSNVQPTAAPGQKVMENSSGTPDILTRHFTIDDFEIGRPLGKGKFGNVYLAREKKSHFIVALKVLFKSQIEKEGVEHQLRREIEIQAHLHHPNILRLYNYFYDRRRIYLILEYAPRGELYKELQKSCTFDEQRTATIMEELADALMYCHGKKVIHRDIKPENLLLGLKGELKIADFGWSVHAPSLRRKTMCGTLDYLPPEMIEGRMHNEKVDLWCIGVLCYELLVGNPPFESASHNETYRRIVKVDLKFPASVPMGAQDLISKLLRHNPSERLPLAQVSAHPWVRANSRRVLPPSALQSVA
UniProt Q14676: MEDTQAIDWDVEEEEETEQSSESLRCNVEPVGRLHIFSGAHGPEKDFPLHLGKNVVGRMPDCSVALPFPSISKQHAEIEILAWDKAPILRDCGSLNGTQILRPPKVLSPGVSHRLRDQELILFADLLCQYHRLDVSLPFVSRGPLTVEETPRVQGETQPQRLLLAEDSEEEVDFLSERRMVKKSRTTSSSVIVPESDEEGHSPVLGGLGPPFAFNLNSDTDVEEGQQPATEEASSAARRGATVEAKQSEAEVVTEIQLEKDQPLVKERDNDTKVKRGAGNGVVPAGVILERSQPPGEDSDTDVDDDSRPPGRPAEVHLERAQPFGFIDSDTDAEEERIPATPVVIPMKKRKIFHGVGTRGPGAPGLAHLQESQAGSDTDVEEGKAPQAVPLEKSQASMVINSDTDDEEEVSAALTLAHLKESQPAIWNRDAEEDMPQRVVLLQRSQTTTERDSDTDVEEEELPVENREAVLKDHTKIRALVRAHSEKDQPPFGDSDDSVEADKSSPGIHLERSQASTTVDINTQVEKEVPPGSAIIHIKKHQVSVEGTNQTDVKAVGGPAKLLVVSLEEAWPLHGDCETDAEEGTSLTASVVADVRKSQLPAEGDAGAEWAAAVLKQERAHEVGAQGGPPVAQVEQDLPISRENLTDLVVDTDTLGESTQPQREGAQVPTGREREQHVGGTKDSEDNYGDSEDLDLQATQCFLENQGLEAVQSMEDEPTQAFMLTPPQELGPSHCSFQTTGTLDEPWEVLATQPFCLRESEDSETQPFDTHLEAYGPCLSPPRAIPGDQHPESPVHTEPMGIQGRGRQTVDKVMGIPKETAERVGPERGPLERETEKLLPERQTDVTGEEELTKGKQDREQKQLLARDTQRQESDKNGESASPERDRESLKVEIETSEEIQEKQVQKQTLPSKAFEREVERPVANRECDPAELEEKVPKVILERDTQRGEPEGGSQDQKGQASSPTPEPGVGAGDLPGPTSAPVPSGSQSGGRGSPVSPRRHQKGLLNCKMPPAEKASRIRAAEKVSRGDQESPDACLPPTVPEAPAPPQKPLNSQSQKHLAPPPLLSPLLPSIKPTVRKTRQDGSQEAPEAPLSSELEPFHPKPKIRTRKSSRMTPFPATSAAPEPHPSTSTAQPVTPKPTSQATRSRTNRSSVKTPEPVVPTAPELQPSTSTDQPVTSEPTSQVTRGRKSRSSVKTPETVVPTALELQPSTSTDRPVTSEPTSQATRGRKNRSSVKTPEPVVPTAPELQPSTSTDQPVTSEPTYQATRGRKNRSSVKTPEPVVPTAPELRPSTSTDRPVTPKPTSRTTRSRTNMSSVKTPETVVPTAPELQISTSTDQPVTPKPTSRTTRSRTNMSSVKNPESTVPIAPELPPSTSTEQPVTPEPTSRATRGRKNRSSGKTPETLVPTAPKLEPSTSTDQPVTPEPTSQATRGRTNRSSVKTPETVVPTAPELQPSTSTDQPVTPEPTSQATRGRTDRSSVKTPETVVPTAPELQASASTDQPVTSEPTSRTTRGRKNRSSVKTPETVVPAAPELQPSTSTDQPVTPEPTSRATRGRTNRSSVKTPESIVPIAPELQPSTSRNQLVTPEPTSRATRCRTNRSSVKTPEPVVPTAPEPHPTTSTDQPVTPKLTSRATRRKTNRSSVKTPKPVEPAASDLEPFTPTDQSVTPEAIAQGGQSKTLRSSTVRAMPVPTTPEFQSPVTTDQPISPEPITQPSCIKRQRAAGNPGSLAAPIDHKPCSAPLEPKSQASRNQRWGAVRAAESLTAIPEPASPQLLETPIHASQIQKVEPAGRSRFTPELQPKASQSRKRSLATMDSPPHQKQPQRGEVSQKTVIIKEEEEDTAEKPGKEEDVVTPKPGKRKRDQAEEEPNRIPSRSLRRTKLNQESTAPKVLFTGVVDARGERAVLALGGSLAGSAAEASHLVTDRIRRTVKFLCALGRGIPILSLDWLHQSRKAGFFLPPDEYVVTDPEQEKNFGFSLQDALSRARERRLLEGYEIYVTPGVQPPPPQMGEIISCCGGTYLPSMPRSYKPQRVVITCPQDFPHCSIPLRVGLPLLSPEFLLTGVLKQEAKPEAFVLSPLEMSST
UniProt Q86US8: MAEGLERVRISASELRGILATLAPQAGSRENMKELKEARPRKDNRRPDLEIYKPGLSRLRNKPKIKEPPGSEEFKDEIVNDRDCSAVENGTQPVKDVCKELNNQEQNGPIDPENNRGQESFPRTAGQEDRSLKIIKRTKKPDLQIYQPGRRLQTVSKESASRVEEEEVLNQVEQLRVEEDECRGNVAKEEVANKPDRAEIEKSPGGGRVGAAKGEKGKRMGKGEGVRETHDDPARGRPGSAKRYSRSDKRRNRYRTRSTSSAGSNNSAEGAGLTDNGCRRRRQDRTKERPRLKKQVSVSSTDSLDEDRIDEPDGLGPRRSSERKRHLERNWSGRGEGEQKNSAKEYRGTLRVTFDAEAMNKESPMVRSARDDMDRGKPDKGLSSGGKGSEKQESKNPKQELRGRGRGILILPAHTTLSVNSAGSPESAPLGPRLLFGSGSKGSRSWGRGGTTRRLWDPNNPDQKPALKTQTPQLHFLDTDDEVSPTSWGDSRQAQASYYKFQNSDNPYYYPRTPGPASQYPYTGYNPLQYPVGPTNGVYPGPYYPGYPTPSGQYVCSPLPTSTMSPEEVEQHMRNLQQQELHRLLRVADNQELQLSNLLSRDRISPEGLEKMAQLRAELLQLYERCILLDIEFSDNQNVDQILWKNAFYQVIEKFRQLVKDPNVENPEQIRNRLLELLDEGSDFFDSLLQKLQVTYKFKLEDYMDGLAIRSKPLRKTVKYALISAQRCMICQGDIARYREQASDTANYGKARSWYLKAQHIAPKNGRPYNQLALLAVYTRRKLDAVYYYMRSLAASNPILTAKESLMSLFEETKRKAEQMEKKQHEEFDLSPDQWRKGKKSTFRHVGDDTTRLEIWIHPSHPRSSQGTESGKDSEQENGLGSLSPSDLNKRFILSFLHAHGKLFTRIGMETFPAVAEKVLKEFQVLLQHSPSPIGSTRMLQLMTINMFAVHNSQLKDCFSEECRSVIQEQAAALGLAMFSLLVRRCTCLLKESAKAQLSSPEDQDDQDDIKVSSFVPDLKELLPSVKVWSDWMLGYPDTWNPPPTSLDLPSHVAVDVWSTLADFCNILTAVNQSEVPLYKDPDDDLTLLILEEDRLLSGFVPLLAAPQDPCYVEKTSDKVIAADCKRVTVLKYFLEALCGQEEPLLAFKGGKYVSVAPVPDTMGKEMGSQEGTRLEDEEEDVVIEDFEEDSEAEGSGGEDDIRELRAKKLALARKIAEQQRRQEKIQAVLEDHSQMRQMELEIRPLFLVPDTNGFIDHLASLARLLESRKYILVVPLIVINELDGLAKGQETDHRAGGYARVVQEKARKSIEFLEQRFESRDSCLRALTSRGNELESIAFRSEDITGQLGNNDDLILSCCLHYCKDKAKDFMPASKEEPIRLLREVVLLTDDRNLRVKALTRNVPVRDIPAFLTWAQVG

For assay [1], the target named is T1, ZNF473, V5-tagged (human) (UniProt Q8WTR7).
T1 sequence: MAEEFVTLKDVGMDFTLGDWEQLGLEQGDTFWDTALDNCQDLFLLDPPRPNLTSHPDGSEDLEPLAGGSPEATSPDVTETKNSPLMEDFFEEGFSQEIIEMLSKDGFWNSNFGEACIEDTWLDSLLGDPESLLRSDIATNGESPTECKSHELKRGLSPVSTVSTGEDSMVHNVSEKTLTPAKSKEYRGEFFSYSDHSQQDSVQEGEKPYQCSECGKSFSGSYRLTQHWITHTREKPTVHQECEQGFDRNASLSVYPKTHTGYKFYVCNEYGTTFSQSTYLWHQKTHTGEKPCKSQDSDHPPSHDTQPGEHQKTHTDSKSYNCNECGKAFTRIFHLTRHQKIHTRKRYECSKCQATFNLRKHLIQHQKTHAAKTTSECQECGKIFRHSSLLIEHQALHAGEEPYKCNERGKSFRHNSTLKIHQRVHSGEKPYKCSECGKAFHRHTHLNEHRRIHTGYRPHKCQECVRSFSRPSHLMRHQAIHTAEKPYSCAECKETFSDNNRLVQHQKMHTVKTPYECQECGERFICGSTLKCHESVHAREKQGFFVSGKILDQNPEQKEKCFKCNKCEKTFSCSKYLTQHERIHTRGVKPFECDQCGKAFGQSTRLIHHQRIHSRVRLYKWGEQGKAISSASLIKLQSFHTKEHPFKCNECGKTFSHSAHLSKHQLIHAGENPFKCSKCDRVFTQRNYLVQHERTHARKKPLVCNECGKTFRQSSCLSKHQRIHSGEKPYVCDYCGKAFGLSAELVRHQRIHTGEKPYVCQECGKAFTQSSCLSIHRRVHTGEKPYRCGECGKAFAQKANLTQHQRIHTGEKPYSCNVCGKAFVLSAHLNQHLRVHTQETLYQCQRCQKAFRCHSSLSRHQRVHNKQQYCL
Nature of the assay: affinity purification with mass spectrometry; anti-V5 antibody and magnetic beads, overnight at 4 C, on lysates of HEK293T cells transfected with V5-tagged ZFP (n=3); untransfected cells as control; lysis buffer 150 mM NaCl, 50 mM Tris pH 7.5, 1% IGEPAL CA-630, 5% glycerol; on-bead trypsin digest, LC-MS/MS, LFQ; hits: log2FC over control IP > 1 and p < 0.05.

Assay [2] concerns the target T2, ZNF277, V5-tagged (human) (UniProt Q9NRM2).
T2 sequence: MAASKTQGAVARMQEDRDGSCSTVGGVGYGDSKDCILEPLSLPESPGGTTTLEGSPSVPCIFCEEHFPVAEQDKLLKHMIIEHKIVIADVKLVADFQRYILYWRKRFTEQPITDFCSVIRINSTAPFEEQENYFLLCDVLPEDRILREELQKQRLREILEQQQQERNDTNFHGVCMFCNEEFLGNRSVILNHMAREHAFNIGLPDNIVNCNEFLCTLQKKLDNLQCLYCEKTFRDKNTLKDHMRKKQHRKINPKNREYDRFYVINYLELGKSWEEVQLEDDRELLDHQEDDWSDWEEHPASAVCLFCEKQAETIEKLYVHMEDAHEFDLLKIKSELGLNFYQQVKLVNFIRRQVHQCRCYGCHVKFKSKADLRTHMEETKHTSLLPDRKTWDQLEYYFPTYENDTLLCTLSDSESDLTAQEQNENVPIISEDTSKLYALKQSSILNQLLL
The assay is described as above.

Results are given in words; binding and its absence hold for the method and conditions named. In cells and extracts the contact can be indirect. Here binding means that the protein was enriched with, or labelled near, the bait; the list need not be complete. Where a sequence is shown, tags or fusion partners need not be part of it.

Regarding “aurora B kinase (AURKB) (from UniProt Q96GD4 1-344)”, the binding result in assay [1] is given as “binds”. As to “mediator of DNA damage checkpoint protein 1 (MDC1) (from UniProt Q14676 1-2089)”, the binding result in assay [1] is recorded as “binds”. Consider SMG6 (from UniProt Q86US8 1-1419), for which the binding result in assay [2] is given as “binds”.
